In patent US20150285801A1:
No constants are given. Whether binding was seen depends on the method and setting. Binding seen in cells or lysates may run through a third protein. Some binding calls cover weakened binding; strength is not graded here.

Sequences of proteins named here, by UniProt entry; tags and fusion partners are left off. A change or cut given only in a name is not applied to a line headed by its entry.
UniProt P11387: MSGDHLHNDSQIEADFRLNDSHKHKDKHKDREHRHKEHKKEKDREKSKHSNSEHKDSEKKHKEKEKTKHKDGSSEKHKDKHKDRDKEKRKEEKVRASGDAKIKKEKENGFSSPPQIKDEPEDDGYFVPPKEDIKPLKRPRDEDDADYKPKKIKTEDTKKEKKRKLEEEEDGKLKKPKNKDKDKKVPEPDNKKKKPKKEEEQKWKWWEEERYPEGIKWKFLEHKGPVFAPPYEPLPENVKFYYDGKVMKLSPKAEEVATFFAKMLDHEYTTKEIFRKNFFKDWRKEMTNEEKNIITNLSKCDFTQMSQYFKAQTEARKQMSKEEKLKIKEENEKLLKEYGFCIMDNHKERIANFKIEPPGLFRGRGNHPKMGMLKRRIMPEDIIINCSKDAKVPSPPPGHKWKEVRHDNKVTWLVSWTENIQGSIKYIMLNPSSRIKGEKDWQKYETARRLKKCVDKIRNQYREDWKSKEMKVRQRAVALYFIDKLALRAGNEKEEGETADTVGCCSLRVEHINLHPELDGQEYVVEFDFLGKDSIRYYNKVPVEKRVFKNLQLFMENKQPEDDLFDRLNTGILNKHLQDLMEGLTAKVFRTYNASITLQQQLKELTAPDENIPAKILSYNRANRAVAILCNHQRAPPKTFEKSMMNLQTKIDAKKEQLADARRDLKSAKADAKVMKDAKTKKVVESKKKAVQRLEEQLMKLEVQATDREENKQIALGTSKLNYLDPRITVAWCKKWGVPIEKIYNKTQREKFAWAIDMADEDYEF
UniProt P38398: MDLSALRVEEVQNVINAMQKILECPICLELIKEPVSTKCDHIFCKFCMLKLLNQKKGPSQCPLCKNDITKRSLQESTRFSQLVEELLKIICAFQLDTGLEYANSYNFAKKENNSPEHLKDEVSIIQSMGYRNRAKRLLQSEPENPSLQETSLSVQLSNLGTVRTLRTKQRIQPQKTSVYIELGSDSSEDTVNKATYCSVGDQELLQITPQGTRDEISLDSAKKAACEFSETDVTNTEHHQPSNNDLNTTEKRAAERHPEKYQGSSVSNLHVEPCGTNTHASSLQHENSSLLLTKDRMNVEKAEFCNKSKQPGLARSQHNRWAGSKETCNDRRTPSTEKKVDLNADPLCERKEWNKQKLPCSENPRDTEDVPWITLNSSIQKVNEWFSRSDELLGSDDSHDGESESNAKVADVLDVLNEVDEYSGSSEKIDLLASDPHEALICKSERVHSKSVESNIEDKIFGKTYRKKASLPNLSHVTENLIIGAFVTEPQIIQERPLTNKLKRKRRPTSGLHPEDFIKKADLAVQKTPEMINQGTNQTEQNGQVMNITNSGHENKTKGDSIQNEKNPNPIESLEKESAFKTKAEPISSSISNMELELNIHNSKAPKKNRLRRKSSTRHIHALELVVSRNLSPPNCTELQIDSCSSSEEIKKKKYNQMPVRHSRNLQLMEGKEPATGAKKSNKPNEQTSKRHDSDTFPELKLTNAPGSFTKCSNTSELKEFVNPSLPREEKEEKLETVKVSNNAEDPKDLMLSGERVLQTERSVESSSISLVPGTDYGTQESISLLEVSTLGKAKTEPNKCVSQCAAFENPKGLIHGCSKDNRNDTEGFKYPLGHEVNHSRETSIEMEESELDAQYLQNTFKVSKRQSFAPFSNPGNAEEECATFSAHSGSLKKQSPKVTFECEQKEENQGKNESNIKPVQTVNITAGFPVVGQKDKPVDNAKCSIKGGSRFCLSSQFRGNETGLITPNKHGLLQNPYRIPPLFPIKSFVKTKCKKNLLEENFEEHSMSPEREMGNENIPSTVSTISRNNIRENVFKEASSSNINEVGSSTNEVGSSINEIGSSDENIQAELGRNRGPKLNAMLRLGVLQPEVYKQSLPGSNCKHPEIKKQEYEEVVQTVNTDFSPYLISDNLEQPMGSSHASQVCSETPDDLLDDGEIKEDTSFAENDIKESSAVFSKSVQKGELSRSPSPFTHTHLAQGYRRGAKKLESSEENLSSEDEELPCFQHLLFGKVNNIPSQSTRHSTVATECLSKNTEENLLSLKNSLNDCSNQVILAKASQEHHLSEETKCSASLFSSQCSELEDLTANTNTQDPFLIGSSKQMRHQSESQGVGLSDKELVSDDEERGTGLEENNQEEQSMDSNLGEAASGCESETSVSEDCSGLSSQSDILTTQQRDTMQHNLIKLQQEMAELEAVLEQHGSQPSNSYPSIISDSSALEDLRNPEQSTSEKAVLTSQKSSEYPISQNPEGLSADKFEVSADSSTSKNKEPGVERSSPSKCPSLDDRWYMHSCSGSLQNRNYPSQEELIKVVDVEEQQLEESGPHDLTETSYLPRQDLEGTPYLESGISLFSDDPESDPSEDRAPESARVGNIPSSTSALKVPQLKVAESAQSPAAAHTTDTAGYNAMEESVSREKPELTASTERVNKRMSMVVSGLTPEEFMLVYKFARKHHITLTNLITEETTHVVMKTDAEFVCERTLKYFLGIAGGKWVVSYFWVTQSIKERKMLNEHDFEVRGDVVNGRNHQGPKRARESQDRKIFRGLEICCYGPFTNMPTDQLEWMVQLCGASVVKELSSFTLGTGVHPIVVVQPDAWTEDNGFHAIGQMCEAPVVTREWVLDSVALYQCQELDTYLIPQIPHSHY

Target: topoisomerase I (human) (UniProt P11387)
Assay: GST pull-down of purified topo I, immunoblot with anti-topoI

binding: binds
Substance: GST-BRCT (from UniProt P38398 1650-1863)
